No constants are given. Whether binding was seen depends on the method and setting. Some binding calls cover weakened binding; strength is not graded here. Tags and fused reporters may be left off the sequences shown.
Target: Human recombinant GP antigen (rGP) produced in 293 cells (human) (UniProt Q01955)
Assay: filter overlay

By UniProt entry, the sequences of proteins in these tests, tags left out. Where a name states a change or a piece, a line headed by the entry shows the natural chain unless it says otherwise. Chains listed by the source or under a name are the forms on record and can include a tag or linker.
Human recombinant GP antigen (rGP) produced in 293 cells (Q01955, form named): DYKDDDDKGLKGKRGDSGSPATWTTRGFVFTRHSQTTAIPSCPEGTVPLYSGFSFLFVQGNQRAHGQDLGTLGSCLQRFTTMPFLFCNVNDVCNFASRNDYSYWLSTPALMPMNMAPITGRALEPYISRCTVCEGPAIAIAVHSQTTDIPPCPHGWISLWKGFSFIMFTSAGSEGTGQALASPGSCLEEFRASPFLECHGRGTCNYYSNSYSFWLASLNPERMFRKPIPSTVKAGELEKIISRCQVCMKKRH

binding: binds
B1: HeLa1 beta-galactosidase-derived fusion protein containing the N-terminal 150 residues of GPBP (protein, not shown: large carriers)
chain: MSDNQSWNSSGSEEDPETESGPPVERCGVLSKWTNYIHGWQDRWVVLKNNALSYYKSEDETEYGCRGSICLSKAVITPHDFDECRFDISVNDSVWYLRAQDPDHRQQWIDAIEQHKTESGYGSESSLRRHGSMVSLVSGASGYSATSTSS
